PMC4238977
Results are given in words; binding and its absence hold for the method and conditions named. Binding seen in cells or lysates may run through a third protein. Some binding calls cover weakened binding; strength is not graded here. For part of these data: Where a sequence is shown, tags or fusion partners need not be part of it. Blank lines part the entries; values can stand above or below the binder they belong to.

Columns and labels:
[1] = molecular target: T1, Bgcn-GFP (Drosophila) (UniProt Q9W1I2); assay: co-IP; testis extracts of bamP-bam-HA/+; bgcnP-bgcn-GFP/+ flies immunoprecipitated with anti-GFP beads; Western blot with anti-HA and anti-GFP
T1 sequence: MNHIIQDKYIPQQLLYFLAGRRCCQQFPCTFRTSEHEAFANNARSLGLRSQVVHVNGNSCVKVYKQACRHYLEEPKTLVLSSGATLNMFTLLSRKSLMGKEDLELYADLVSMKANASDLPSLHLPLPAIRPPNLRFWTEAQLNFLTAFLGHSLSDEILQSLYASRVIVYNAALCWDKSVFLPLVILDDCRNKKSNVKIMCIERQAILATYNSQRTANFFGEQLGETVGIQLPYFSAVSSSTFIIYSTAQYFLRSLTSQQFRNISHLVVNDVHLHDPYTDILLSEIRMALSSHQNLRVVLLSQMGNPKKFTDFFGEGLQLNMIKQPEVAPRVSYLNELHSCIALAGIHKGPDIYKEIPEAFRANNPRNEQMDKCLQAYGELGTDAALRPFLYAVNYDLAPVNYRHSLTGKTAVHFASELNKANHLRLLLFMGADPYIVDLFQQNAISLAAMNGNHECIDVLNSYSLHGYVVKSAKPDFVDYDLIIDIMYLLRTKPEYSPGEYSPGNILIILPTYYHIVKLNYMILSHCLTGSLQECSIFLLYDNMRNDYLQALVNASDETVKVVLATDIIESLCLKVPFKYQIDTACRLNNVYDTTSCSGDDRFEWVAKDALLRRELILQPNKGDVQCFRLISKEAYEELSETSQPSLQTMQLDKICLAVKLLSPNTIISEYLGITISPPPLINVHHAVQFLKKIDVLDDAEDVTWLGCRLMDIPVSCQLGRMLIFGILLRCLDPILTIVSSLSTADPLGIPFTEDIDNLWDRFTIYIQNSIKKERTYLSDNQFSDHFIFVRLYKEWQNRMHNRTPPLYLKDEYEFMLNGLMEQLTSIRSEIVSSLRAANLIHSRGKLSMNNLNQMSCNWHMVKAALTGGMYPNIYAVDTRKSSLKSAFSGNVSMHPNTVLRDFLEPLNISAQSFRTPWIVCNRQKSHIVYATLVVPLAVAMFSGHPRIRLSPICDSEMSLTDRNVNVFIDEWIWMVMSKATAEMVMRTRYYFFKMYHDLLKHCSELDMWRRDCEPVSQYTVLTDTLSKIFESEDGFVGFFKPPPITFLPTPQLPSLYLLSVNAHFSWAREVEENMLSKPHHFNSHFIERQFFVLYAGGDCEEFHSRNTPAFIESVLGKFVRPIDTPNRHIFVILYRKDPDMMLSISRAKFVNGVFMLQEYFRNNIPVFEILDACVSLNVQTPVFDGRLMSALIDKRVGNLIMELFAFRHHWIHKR

[2] = molecular target: T2, Myc-Tut (Drosophila) (UniProt Q8IQA2); assay: co-IP; S2 cells over-expressing Flag-Bam and Myc-Tut; lysates immunoprecipitated with anti-Myc or anti-Flag beads, 4 h at 4°C, Western blot
T2 sequence: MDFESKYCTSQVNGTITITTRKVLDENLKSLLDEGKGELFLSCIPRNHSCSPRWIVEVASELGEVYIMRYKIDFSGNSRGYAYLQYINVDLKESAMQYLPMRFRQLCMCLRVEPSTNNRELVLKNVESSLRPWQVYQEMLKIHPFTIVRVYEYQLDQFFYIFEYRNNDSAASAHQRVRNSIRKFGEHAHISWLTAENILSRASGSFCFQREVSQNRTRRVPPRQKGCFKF

[3] = molecular target: T3, Flag-Myc-Bgcn (Drosophila) (UniProt Q9W1I2); assay: co-IP; S2 cell lysates incubated with 0.5 µg/uL RNaseA for 30 min at room temperature, then immunoprecipitated with anti-Myc beads; Western blot for TAP-, Flag- or Myc-tagged proteins
T3 sequence: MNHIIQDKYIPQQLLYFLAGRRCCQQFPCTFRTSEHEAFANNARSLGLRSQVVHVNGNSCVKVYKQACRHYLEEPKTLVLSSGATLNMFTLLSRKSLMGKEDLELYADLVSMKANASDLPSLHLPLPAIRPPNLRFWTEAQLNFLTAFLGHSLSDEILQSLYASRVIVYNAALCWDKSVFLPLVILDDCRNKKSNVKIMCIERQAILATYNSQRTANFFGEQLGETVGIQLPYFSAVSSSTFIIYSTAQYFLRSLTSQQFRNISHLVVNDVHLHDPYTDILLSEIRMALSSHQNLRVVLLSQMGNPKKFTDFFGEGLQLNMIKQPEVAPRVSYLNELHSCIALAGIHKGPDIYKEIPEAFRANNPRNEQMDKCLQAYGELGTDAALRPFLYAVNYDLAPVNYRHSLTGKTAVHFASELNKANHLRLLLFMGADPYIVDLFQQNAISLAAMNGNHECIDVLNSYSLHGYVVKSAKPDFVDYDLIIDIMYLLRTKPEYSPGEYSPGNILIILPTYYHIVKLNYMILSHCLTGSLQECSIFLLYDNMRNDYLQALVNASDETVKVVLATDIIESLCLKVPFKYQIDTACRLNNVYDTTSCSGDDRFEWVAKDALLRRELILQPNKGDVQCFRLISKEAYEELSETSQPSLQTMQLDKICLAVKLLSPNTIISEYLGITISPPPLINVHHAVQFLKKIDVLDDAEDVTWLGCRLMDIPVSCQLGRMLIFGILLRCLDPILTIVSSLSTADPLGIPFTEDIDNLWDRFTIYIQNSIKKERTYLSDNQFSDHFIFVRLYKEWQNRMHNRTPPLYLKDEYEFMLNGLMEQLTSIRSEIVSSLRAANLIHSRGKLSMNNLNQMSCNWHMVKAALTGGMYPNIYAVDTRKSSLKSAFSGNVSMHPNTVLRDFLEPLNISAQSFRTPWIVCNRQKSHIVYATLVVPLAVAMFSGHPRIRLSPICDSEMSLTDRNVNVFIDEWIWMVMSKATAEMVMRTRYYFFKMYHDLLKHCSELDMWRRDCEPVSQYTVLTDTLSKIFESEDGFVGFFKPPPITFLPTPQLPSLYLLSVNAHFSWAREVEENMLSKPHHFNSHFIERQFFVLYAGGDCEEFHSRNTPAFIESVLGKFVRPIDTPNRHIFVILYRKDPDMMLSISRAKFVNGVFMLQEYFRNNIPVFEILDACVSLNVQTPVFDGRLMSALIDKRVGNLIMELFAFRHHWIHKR

[4] = molecular target: T3, Flag-Myc-Bgcn (Drosophila); assay: co-IP; two-step co-immunoprecipitation from S2 cells co-expressing TAP-Tut, Flag-Bam and Flag-Myc-Bgcn: IgG beads, TEV elution, then anti-Myc beads; Western blot with anti-SBP, anti-Flag, anti-Myc
[5] = molecular target: T4, TAP-Tut (Drosophila) (UniProt Q8IQA2); assay: as above
T4 sequence: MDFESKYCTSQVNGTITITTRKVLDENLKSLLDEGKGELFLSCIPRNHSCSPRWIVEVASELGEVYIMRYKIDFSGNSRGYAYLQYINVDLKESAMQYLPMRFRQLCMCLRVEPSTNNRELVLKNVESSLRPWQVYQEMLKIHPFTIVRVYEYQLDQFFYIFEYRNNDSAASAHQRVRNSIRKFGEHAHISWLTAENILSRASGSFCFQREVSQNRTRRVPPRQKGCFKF

[6] = molecular target: T5, Tut-TAP (Drosophila) (UniProt Q8IQA2); assay: co-IP; testis extracts (300-500 pairs of testes) of tutP-tutTAP; bamP-bgcnGFP flies immunoprecipitated with IgG beads; Western blot
T5 sequence: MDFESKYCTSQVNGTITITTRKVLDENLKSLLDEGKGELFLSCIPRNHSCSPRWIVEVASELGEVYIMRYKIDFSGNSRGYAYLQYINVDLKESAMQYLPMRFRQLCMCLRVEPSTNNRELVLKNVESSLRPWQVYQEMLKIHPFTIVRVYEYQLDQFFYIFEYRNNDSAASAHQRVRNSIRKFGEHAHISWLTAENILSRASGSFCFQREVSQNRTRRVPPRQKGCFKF

- binding [1]: binds
B1: Bam-HA (protein, UniProt P22745 1-442)
chain: MLNARDVCPEGNDDQQLDHNFKQMEEHLALMVEGNENEDPRKATCEYEDTNEDGATCTSGVLSEIQENFGRLRLCDVTAPLLEFHGLDCLQQIQKRSRHFAFDGSPAKKSRSGGVLVTGPKQKQLQKENVWNRKSKGSASADNIEKLPITIEKLHMIGLHGDCLEHNAVLRLMNLFRSLHDHLTADLGFSRQNSMPSDYLFDMPVKSTMPKSLNVRYQLQVLCTKVERFLVQQRRTLEANRHFDFEKYDECDKLLKGFASYLDNFKLLLKPKMRNRNGNSGSNADKFHTQRMERLLIGLRDWIKAAHLSVHVFNWEMDLEHRYSGAMTESHKSLNERAILLSGAELRAAEARGISAEDLFIAQRYKLGGPIYCVLEQHEFLSALIANPETYFPPSVVAICGPQKLGAVSMEQPSASEEEFEETEEVPSSPPRHTGRVPRFRS

- binding [2]: binds
- binding [3]: binds
- binding [4]: binds
- binding [5]: binds
B2: Flag-Bam (protein, UniProt P22745 1-442)
chain: MLNARDVCPEGNDDQQLDHNFKQMEEHLALMVEGNENEDPRKATCEYEDTNEDGATCTSGVLSEIQENFGRLRLCDVTAPLLEFHGLDCLQQIQKRSRHFAFDGSPAKKSRSGGVLVTGPKQKQLQKENVWNRKSKGSASADNIEKLPITIEKLHMIGLHGDCLEHNAVLRLMNLFRSLHDHLTADLGFSRQNSMPSDYLFDMPVKSTMPKSLNVRYQLQVLCTKVERFLVQQRRTLEANRHFDFEKYDECDKLLKGFASYLDNFKLLLKPKMRNRNGNSGSNADKFHTQRMERLLIGLRDWIKAAHLSVHVFNWEMDLEHRYSGAMTESHKSLNERAILLSGAELRAAEARGISAEDLFIAQRYKLGGPIYCVLEQHEFLSALIANPETYFPPSVVAICGPQKLGAVSMEQPSASEEEFEETEEVPSSPPRHTGRVPRFRS

- binding [6]: binds
B3: Bam (protein, UniProt P22745 1-442)
chain: MLNARDVCPEGNDDQQLDHNFKQMEEHLALMVEGNENEDPRKATCEYEDTNEDGATCTSGVLSEIQENFGRLRLCDVTAPLLEFHGLDCLQQIQKRSRHFAFDGSPAKKSRSGGVLVTGPKQKQLQKENVWNRKSKGSASADNIEKLPITIEKLHMIGLHGDCLEHNAVLRLMNLFRSLHDHLTADLGFSRQNSMPSDYLFDMPVKSTMPKSLNVRYQLQVLCTKVERFLVQQRRTLEANRHFDFEKYDECDKLLKGFASYLDNFKLLLKPKMRNRNGNSGSNADKFHTQRMERLLIGLRDWIKAAHLSVHVFNWEMDLEHRYSGAMTESHKSLNERAILLSGAELRAAEARGISAEDLFIAQRYKLGGPIYCVLEQHEFLSALIANPETYFPPSVVAICGPQKLGAVSMEQPSASEEEFEETEEVPSSPPRHTGRVPRFRS
